Assay results from publication PMC2603589.
No constants are given. Whether binding was seen depends on the method and setting. For some of these results: Binding seen in cells or lysates may run through a third protein. Some entries that bind do so weakly or less than the wild type.

The chains behind the UniProt entries cited, without tags or fusion partners. Residues count along the entry.
UniProt P09803, residues 732-883: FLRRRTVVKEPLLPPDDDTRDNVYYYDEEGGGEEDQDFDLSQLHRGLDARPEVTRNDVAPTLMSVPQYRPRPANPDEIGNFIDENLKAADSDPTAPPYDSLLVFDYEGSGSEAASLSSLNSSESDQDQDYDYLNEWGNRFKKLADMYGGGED
UniProt P15116, residues 746-906: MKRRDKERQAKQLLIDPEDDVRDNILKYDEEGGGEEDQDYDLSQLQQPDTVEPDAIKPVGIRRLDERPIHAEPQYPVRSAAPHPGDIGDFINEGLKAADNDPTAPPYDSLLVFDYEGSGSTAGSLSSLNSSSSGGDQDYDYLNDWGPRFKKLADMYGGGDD
UniProt P45481: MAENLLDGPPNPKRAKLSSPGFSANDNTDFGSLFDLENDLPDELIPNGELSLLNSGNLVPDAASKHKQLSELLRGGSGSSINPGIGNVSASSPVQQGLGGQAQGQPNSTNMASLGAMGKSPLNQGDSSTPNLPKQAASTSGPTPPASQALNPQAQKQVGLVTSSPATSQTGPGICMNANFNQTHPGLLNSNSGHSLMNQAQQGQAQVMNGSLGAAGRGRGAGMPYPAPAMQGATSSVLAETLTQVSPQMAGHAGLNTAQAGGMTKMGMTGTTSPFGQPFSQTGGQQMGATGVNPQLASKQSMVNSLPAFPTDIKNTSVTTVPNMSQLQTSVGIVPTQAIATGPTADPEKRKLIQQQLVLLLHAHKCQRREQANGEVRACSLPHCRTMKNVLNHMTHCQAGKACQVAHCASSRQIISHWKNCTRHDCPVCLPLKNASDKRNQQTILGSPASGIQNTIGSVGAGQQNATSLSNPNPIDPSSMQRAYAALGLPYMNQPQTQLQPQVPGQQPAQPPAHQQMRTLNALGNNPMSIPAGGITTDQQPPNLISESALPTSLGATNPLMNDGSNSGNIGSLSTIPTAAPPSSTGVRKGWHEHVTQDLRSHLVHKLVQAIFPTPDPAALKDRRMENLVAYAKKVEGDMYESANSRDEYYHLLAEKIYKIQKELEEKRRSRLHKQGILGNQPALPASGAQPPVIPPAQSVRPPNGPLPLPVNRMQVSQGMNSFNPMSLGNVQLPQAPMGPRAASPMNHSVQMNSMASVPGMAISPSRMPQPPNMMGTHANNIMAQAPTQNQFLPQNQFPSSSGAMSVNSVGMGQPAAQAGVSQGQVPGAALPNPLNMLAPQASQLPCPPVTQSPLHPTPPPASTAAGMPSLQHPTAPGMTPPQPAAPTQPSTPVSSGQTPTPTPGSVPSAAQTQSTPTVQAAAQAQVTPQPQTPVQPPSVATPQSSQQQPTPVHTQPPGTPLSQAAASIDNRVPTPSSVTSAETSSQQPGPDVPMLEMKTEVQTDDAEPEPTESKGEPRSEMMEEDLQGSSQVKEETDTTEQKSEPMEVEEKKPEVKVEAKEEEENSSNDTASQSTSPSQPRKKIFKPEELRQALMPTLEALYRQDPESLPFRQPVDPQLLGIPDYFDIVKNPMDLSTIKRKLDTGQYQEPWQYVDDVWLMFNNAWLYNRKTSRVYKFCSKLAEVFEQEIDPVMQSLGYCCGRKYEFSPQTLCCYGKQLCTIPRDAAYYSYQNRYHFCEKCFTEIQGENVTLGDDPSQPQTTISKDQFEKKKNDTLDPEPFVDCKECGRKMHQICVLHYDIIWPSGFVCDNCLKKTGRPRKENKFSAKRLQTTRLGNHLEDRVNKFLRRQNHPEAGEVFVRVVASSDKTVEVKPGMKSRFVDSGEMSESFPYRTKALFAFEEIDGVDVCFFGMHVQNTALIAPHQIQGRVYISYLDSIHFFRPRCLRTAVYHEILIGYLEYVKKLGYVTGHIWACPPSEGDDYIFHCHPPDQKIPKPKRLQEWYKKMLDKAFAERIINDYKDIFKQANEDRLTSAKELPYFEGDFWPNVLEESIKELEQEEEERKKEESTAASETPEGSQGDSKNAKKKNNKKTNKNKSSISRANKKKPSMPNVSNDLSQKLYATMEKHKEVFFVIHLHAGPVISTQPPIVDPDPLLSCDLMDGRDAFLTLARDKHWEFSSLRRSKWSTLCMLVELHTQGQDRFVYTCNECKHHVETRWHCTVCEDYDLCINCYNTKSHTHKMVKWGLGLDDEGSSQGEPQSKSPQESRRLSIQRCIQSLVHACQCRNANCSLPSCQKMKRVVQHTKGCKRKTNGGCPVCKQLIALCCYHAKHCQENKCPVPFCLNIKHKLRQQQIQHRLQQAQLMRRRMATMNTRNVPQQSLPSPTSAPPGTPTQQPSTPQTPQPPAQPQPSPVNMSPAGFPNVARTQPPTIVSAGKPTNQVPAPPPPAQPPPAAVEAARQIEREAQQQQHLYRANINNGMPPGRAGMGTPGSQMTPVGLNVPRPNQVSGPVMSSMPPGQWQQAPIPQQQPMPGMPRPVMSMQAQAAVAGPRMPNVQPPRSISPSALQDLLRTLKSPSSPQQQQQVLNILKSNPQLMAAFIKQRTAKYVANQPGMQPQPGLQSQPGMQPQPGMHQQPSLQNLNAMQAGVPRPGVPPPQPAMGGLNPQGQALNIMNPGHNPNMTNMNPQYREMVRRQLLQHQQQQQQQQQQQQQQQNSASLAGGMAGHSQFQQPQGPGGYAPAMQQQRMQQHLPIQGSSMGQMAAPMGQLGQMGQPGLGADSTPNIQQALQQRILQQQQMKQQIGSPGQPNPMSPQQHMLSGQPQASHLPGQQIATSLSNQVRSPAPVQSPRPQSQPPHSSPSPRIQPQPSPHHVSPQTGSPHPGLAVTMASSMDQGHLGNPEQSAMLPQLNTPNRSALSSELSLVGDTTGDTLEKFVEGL

What was measured:
[1] = molecular target: GST-E-cadh-CTF2 (cytosolic domain of murine E-cadherin fused to GST) (murine) (UniProt P09803); test: pull-down; 20 pmols of non-phosphorylated or CKI-phosphorylated GST-cadh-CTF2 proteins incubated with 1.2 mg of MEF PS (−/−) total cell extracts; glutathione-Sepharose; Western blot with anti-CBP; autoradiograms scanned; only the target purified
[2] = molecular target: GST-E-cadh-CTF2 phosphorylated in vitro with CK1 (murine) (UniProt P09803); test: as above
[3] = molecular target: GST-N-cadh-CTF2 (cytosolic domain of murine N-cadherin fused to GST) (murine) (UniProt P15116); test: as above
[4] = molecular target: GST-N-cadh-CTF2 phosphorylated in vitro with CK1 (murine) (UniProt P15116); test: as above
[5] = molecular target: CBP, endogenous in MEF PS (−/−) (mouse (endogenous in MEF)) (UniProt P45481); test: co-IP; MEFs PS (−/−) transfected with E-cadh-CTF2-GFP, 30 µM MG132 for 4 h; 500 µg of cytosolic fraction (RIPA buffer) with 2.5 µg of anti-CBP antibody
[6] = molecular target: T1, β-catenin, endogenous in MEFs (mouse (endogenous in MEF)), Q02248; test: co-IP; 800 µg of MEF PS (−/−) and PS (+/+) total-cell extracts immunoprecipitated with an anti-β-catenin MAb; Western blot against Tcf-4 and β-catenin; details: remark: other sources report otherwise
T1 chain: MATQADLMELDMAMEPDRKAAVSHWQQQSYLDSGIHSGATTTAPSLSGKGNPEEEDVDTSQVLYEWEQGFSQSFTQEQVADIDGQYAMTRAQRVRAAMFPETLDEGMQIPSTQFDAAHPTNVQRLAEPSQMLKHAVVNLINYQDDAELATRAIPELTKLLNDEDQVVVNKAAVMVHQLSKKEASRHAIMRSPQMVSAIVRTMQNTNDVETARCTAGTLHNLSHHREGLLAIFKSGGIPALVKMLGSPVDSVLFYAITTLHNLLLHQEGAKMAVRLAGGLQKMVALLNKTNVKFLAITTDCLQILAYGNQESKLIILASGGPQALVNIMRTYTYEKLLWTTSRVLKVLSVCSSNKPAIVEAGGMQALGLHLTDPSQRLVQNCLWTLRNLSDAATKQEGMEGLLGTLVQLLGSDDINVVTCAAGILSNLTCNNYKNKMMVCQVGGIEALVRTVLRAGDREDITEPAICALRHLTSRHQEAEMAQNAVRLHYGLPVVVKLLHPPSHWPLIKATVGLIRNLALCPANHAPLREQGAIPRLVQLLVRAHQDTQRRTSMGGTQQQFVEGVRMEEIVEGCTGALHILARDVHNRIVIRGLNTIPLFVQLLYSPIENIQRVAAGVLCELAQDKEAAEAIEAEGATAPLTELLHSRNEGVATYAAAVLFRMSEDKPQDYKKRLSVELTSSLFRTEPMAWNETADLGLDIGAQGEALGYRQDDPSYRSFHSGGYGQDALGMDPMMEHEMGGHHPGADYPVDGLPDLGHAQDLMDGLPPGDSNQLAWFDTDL

[7] = molecular target: GST-E-cadh-CTF2 (cytosolic domain of murine E-cadherin fused to GST) (murine) (UniProt P09803); test: pull-down; 12 pmol of GST-E-cadh-CTF2 pre-incubated with 20 pmols of recombinant p120-catenin; read out as loss of PS1 from the MEF PS (+/+) extract; both purified

For “CBP, endogenous in MEF PS (−/−) (from UniProt P45481 1-2441)”, the binding [1] was “binds”, the binding [2] was “binds” and the binding [3] was “binds”. For the same molecule, the binding [4] was “binds”.

“E-cadh-CTF2-GFP (from UniProt P09803 732-883) (domain or fragment)” was tested, and the binding [5] was “binds”.

B1: Tcf-4, endogenous in MEFs, Q924A0 1-459 (protein)
chain: MPQLNGGGGDDLGANDELISFKDEGEQEEKNSENSSAERDLADVKSSLVNESETNQDSSSDSEAERRPPPRSESFRDKSRESLEEAAKRQDGGLFKGPPYPGYPFIMIPDLTSPYLPNGSLSPTARTYLQMKWPLLDVQAGSLQSRQTLKDARSPSPAHIVSNKVPVVQHPHHVHPLTPLITYSNEHFTPGNPPPHLPADVDPKTGIPRPPHPPDISPYYPLSPGTVGQIPHPLGWLVPQQGQPVYPITTGGFRHPYPTALTVNASMSRFPPHMVPPHHTLHTTGIPHPAIVTPTVKQESSQSDVGSLHSSKHQDSKKEEEKKKPHIKKPLNAFMLYMKEMRAKVVAECTLKESAAINQILGRRWHALSREEQAKYYELARKERQLHMQLYPGWSARDNYGKKKKRKRDKQPGETNEHSECFLNPCLSLPPITDLSAPKKCRARFGLDQQNNWCGPCSL
B1 was tested, and the binding [6] was “binds”.

B2: recombinant p120-catenin (protein, UniProt P30999 1-938)
chain: MDDSEVESTASILASVKEQEAQFEKLTRALEEERRHVSAQLERVRVSPQDANSLMANGTLTRRHQNGRFVGDADLERQKFSDLKLNGPQDHNHLLYSTIPRMQEPGQIVETYTEEDPEGAMSVVSVETTDDGTTRRTETTVKKVVKTMTTRTVQPVPMGPDGLPVDASAVSNNYIQTLGRDFRKNGNGGPGPYVGQAGTATLPRNFHYPPDGYGRHYEDGYPGGSDNYGSLSRVTRIEERYRPSMEGYRAPSRQDVYGPQPQVRVGGSSVDLHRFHPEPYGLEDDQRSMGYDDLDYGMMSDYGTARRTGTPSDPRRRLRSYEDMIGEEVPPDQYYWAPLAQHERGSLASLDSLRKGMPPPSNWRQPELPEVIAMLGFRLDAVKSNAAAYLQHLCYRNDKVKTDVRKLKGIPILVGLLDHPKKEVHLGACGALKNISFGRDQDNKIAIKNCDGVPALVRLLRKARDMDLTEVITGTLWNLSSHDSIKMEIVDHALHALTDEVIIPHSGWEREPNEDCKPRHIEWESVLTNTAGCLRNVSSERSEARRKLRECDGLVDALIFIVQAEIGQKDSDSKLVENCVCLLRNLSYQVHREIPQAERYQEALPTVANSTGPHAASCFGAKKGKDEWFSRGKKPTEDPANDTVDFPKRTSPARGYELLFQPEVVRIYISLLKESKTPAILEASAGAIQNLCAGRWTYGRYIRSALRQEKALSAIAELLTSEHERVVKAASGALRNLAVDARNKELIGKHAIPNLVKNLPGGQQNSSWNFSEDTVVSILNTINEVIAENLEAAKKLRETQGIEKLVLINKSGNRSEKEVRAAALVLQTIWGYKELRKPLEKEGWKKSDFQVNLNNASRSQSSHSYDDSTLPLIDRNQKSDKKPDREEIPMSNMGSNTKSLDNNYSTLNERGDHNRTLDRSGDLGDMEPLKGAPLMQKI
With B2 the binding [7] was “binds”.
